# Experimental data: article PMC8391706
# By UniProt entry, the sequences of proteins in these tests, tags left out.
# UniProt P14618: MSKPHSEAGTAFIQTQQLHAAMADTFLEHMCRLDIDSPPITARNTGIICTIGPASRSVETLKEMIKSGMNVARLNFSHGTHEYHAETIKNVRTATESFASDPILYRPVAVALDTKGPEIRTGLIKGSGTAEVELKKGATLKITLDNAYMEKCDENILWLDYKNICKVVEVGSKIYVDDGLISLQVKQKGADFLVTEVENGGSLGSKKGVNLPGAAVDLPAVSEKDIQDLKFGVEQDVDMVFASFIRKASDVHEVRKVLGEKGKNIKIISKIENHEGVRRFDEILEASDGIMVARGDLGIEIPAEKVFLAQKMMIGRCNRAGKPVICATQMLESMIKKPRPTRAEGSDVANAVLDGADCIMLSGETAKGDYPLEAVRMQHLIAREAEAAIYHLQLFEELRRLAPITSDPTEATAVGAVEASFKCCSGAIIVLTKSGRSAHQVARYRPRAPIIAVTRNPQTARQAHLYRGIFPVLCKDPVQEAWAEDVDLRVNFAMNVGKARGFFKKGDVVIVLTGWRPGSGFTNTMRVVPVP
# Results are given in words; binding and its absence hold for the method and conditions named. For part of these data: Binding seen in cells or lysates may run through a third protein. Some entries that bind do so weakly or less than the wild type.
# How the values were obtained:
# recombinant PSAT1 = molecular target: T1, recombinant PSAT1 (UniProt Q9Y617); assay: co-IP; 50 ng recPSAT1 mixed with 500 ng recPKM1 or recPKM2 in IP lysis buffer; precipitated with anti-PSAT1, immunoblot with anti-PKM1, anti-PKM2, anti-PSAT1; recPSAT1 alone as control; both purified
# T1 sequence: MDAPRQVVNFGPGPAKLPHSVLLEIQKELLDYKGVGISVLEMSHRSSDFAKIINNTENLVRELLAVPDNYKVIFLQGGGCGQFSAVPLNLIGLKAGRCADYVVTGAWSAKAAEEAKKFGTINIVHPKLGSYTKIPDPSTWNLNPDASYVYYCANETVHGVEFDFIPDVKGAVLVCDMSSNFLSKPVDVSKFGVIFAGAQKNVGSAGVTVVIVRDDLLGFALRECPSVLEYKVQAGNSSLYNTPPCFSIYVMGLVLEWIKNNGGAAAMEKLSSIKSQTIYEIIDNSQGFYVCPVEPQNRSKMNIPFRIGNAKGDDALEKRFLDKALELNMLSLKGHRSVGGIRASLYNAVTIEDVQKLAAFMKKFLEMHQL
# [1] = molecular target: T2, endogenous PSAT1 (phosphoserine aminotransferase 1) (human (endogenous in HEK293T, A549, PC9)) (UniProt Q9Y617); assay: co-IP; endogenous proteins; A549 and PC9 whole-cell lysate (1 mg) precipitated with anti-PSAT1 or rabbit IgG (Protein G Dynabeads); immunoblot with anti-PKM2
# T2 sequence: T1 sequence
# [2] = molecular target: T2, endogenous PSAT1 (phosphoserine aminotransferase 1) (human (endogenous in HEK293T, A549, PC9)); assay: co-IP; HEK293T transfected with FLAG-PKM2 WT or mutants (MT1-4); endogenous PSAT1 precipitated with anti-PSAT1 from 1 mg lysate (Protein G Dynabeads); immunoblot
substance,measurement,setting,value
human recombinant PKM2 (pyruvate kinase M2) (from UniProt P14618 1-531) (enzyme),binding,recombinant PSAT1,binds
endogenous PKM2 (pyruvate kinase M2) (from UniProt P14618 1-531) (enzyme),binding,[1],binds
FLAG-PKM2 wild-type (from UniProt P14618 1-531) (enzyme),binding,[2],binds
